Reference: patent publication US11458144B1, “Methods for using 5-HMF analogs with increased solubility to inhibit or reverse RBC sickling” (King Abdulaziz University, priority 2021, dated 2022)
Some of these results come from one statement about several compounds together.

System: SS RBCs
Experiment: Antisickling study (RBC morphology) in SS blood under hypoxia
Type: cell-based, human
Conditions: 2 mM; over 5-HMF
Protocol: The effect of the MMA compounds and positive control 5-HMF on RBC sickling, Hb modification, and Hb oxygen equilibrium was studied utilizing SS blood following previous procedure.^[27]
For the antisickling study, SS blood (hematocrit 20%) were incubated under air in the absence or presence of all the MMA compounds (0.5 mM, 1 mM and 2 mM) at 37° C. for 1 h, followed by incubating the mixture under hypoxic conditions (2.5% O2) at 37° C. for 2 h. Aliquots with fixed 2% glutaraldehyde solution and under anaerobic condition were subjected to microscopic morphological analysis.^[11]
Using homozygous sickle (SS) blood from patients, the MMA compounds (MMA502, MMA503, MMA504, MMA505, and MMA509 were tested with 5-HMF as control for Hb adduct formation, effect on Hb affinity for oxygen and corresponding antisickling activities (RBC morphology study) using previously published protocols.^14,15

Row | SMILES | antisickling activity relative to 5-HMF
1 | O=Cc1ccc(-c2ccn[nH]2)o1 [MMA-503, 5-(1H-pyrazol-5-yl)furan-2-carbaldehyde] | at least 3.5 fold
2 | O=Cc1ccc(C2CCCCO2)o1 (centres unmarked) [MMA-509] | at least 3.5 fold
